Assay [1] deals with T1, LH^KKK (MukB long hinge 568–863 with D697K D745K E753K) (E. coli) (UniProt P22523).
T1 sequence: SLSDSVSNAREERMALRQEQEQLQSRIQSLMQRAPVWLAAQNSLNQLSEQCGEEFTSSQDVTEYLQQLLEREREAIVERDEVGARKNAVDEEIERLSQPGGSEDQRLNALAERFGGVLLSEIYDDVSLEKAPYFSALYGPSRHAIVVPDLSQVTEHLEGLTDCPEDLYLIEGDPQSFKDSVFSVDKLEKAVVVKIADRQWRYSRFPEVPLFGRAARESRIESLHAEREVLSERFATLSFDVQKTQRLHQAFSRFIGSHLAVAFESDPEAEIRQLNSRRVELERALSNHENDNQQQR
The experiment in a line: native gel or EMSA; native PAGE; varying ratios of MatP or ParC^CTD with LH or LH^KKK (3 µM), 30 min on ice; 50 mM HEPES pH 7.5, 100 mM NaCl, 1 mM MgCl2, 1 mM DTT, 10% glycerol; Coomassie; both purified. A general note: Mobility shift assays separate free from complexed probe on a gel.

In assay [2] the target is T2, MukB long hinge (LH; amino acid residues 568–863) (E. coli) (UniProt P22523).
T2 sequence: T1 sequence with K130D, K178D, K186E
Described as above.

Assay [3] deals with T2, MukB long hinge (LH; amino acid residues 568–863) (E. coli). The experiment in a line: SEC; analytical SEC, Superose 6 Increase 10/300; proteins mixed at the indicated ratios (LH:MatP:ParC^CTD 1:2:2; LH or LH^KKK at 20 µM with MatP 1:2), 1 h on ice; 50 mM HEPES pH 7.5, 100 mM NaCl, 1 mM MgCl2, 1 mM DTT, 10% glycerol; fractions on SDS-PAGE; both purified.

Substitutions are numbered along the chain they refer to. These are yes or no findings as the source states them, for the method shown. For part of these data: A result given as binding can be weak or reduced; the word gives no strength.

Turning to “MBP-ParC^CTD (ParC C-terminal domain with N-terminal MBP fusion) (E. coli) (domain or fragment)”, the binding entry in assay [1] is listed as “no binding (tested: LH^KKK at 3 µM)”; in assay [2], “binds”; in assay [3], “binds”.
